# This is one part of the list. These are further read-outs of the screen, such as a control signal, another cell line or another target. No call is given for them. The list favours compounds with an active or inconclusive main result. Words in brackets tell the shape of the fitted curve; partial curves, single points and poor fits give uncertain potencies.
# Test: qHTS Assay for Lipid Storage Modulators in Drosophila S3 Cells;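 for cell number change: cells counted by Cell Tracker Red CMTPX staining in the red channel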
# Details: BODIPY lipid droplet fluorescence, 18-24 h; for cell number change: measured here: cell count max response, cells fed with added oleic acid
# Procedure, shortened: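 Drosophila S3 cells got compounds at several concentrations plus oleic acid (400 uM solution). Laser-scanning cytometry with 488 nm excitation read lipid droplets at 500-530 nm and cells at 575-640 nm. Percent activity was relative to 20 uM Triacsin C.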
# [1] = measured here: cell number channel AC50, cells fed with added oleic acid
# [2] = measured here: lipid fluorescence (Fed channel) AC50, cells fed with added oleic acid
SMILES,cell number change,AC50 [1],AC50 [2]
S=C(c1ccc(-c2ccc(Cl)cc2)o1)N1CCCCC1,-58.6%,"5.8 µM [falling, partial curve]","6.51 µM [falling, full curve]"
NC(=O)c1ccsc1NC(=O)c1ccc2c(c1)CCCC2,–,–,"0.58 µM [rising, full curve]"
CN(Cc1ccccc1)S(=O)(=O)c1ccc(NC(=O)C2CCCO2)cc1 (configuration not stated),1.46%,–,–
CCC(Sc1nc2sc(C(=O)OC)c(C)c2c(=O)n1N)C(=O)NCC1CCCO1 (configuration not stated),–,"6.51 µM [rising, single point]","4.61 µM [rising, partial curve]"
COc1ccc(C)cc1S(=O)(=O)N1CCCC(C(=O)NCc2ccccn2)C1 (configuration not stated),6.74%,–,"5.17 µM [rising, single point]"
CCCn1c(N)c(C(=O)CN(C)CC(=O)Nc2cccc(F)c2)c(=O)[nH]c1=O,2.61%,–,"0.164 µM [falling, single point]"
COc1ccc(C2(c3ccc(OC)cc3)NC(=O)N(CC(=O)NCC(C)c3ccccc3)C2=O)cc1 (configuration not stated),-16.7%,–,–
Cn1c(=O)cc(OCC(=O)N2CCN(c3cccc(C(F)(F)F)c3)CC2)c2ccccc21,6.71%,–,–
CC(C)c1nnc(SCc2ccc(CSc3nnc(C(C)C)n3N)cc2)n1N,-35.5%,"14.6 µM [falling, partial curve, poor fit]","0.0058 µM [falling, full curve, poor fit]"
CN(C)[C@@H]1C(=O)C(C(N)=O)=C(O)[C@@]2(O)C(=O)C3=C(O)c4c(O)ccc(Cl)c4[C@@H](O)[C@H]3C[C@@H]12,12%,"6.51 µM [rising, single point]",–
COc1ccc(CC(=O)N2CCN=C2SC)cc1,11.7%,–,"0.146 µM [falling, full curve, poor fit]"
CC(C)(C)c1nc[nH]c(=O)c1Br,137%,"29.1 µM [rising, partial curve, poor fit]","0.00461 µM [falling, full curve, poor fit]"
CCC(C)[C@H](NC(=O)C1CC(=O)N(c2ccc(OC)cc2)C1)C(=O)NC1CCCC1 (some centres not stated),-11.8%,–,"0.651 µM [rising, partial curve, poor fit]"
COc1ccc(CCNC(=O)c2ccc(OC)c(OC)c2)cc1OC,–,–,"29.1 µM [rising, single point]"
Nc1nc(CSCc2ccccc2)nc(N2CCOCC2)n1,1.15%,–,"29.1 µM [rising, single point]"
O=C(COC(=O)C1CCC1)Nc1ccccc1Sc1ccccc1,6.96%,–,"14.6 µM [rising, partial curve, poor fit]"
COc1ccc(Nc2nc3c(C)cccn3c(=O)c2C=O)cc1,-6.94%,–,–
CCOc1ccccc1N1CCN(Cc2ccc(OC)c(OC)c2OC)CC1,-21.6%,–,"6.51 µM [falling, partial curve]"
CCC(C)N(C(=O)CSc1ncnc2sccc12)C1CCS(=O)(=O)C1 (configuration not stated),4.14%,"0.58 µM [falling, full curve]","0.92 µM [falling, full curve]"
Cc1ccc(C)c(Nc2ncccc2C(=O)NCc2cccs2)c1,34.1%,"29.1 µM [rising, single point]","0.58 µM [falling, partial curve]"

SMILES,cell number change,AC50 [1],AC50 [2]
NC(=O)N(N)c1nc(N2CCCC2)nc(N2CCCC2)n1,-12.5%,–,"18.4 µM [rising, single point]"
CCOCCCN(C(=O)c1snc(C(N)=O)c1N)C(C(=O)NC1CCCC1)c1ccc(O)cc1 (configuration not stated),8.26%,–,"14.6 µM [falling, partial curve]"
COc1ccc(C(=O)N2CCN(C(=O)C3COc4ccccc4O3)CC2)cc1OC (configuration not stated),12.5%,–,"13 µM [rising, partial curve]"
CS(=O)(=O)N(CC(=O)NCc1ccc2c(c1)OCO2)Cc1ccccc1,3.31%,–,"3.26 µM [rising, single point]"
Cc1cccc(C(=O)NCCC(=O)Nc2nc(C)c(Cc3ccc4c(c3)OCO4)s2)c1,-37.1%,"18.4 µM [falling, single point]","4.11 µM [falling, full curve, poor fit]"
CC(C)c1ccc(CNc2ccc(N3CCOCC3)cc2)cc1,-89.4%,–,–
C=CCn1c(=O)c2ccccc2n2c(SCc3nc(N)nc(Nc4ccccc4C)n3)nnc12,23.6%,"0.00517 µM [rising, full curve, poor fit]",–
CCOC(=O)c1cccc(NC(=O)CCn2nc(C)c(S(=O)(=O)N3CCCCC3)c2C)c1,6.45%,–,"1.03 µM [rising, partial curve]"
COc1cc(C)c(S(=O)(=O)N2CCCC2)cc1C,3.35%,–,"18.4 µM [rising, single point]"
Cc1ccc(NC(=O)C(C)Sc2nc(=O)cc(N)n2-c2ccccc2)cc1 (configuration not stated),79.2%,"10.3 µM [rising, partial curve]",–
COc1ccc(N2CC(C(=O)NCCc3ccc(Cl)cc3)CC2=O)c(OC)c1 (configuration not stated),–,–,"0.58 µM [falling, single point]"
COCC(=O)OCC(=O)Nc1ccc(Cl)cc1[N+](=O)[O-],9.63%,"0.517 µM [falling, single point]","3.26 µM [falling, single point]"
CCOc1ccccc1NC(=O)CSc1nc2cc(O)ccc2c(=O)n1-c1ccc(OC)c(OC)c1,117%,"29.1 µM [rising, single point]","23.1 µM [falling, single point]"
COc1ccccc1NC(=O)c1ccc(N)cc1,-9.4%,–,–
CC(=O)Nc1nonc1-c1nc2ccccc2n1CCC#N,28%,"4.61 µM [rising, full curve, poor fit]","2.06 µM [rising, partial curve]"
CN(C)c1ccc(-c2nc3ccccn3c2/N=C/c2ccc(Br)cc2)cc1,-78.9%,"18.4 µM [falling, single point]","29.1 µM [falling, single point]"
COc1cc2c(cc1OC)-c1c(OC)c(OC)cc3ccnc(c13)C2=O,8.15%,–,–
Cc1ccccc1OC/C(O)=C(\C#N)c1nc2ccccc2[nH]1,-7.45%,–,–
CCOc1ccc(S(=O)(=O)Nc2ccc(OC)nc2)cc1,2.14%,–,"29.1 µM [falling, single point]"
CCOC(=O)c1c(S(=O)(=O)NCC(=O)Nc2cc(C)ccc2C)c(C)n(C)c1C,2.67%,–,–

SMILES,cell number change,AC50 [1],AC50 [2]
CC(NC(=O)C(c1ccccc1)c1ccccc1)c1ccc(S(N)(=O)=O)cc1 (configuration not stated),2.63%,–,"35.5 µM [falling, single point]"
Cc1c(NC(=O)C(C)Oc2ccccc2F)c(=O)n(-c2ccccc2)n1C (configuration not stated),–,–,"0.00461 µM [falling, full curve, poor fit]"
CC(NC(=O)Cn1cc(C(F)(F)F)cc(Cl)c1=O)c1ccccc1 (configuration not stated),23.8%,–,"0.146 µM [rising, full curve, poor fit]"
Cc1cc(C)n(-c2ccc(C(=O)Nc3ccc(C)c(S(=O)(=O)N(C)C)c3)cc2)n1,-1.69%,–,"10.3 µM [falling, partial curve, poor fit]"
Cc1nc(SCC(=O)Nc2cc(C)on2)c2c3c(sc2n1)CCCC3,–,"0.461 µM [rising, single point]","0.58 µM [rising, single point]"
CCOc1ccc(CN(C)C(=O)CNC(=O)c2cc(OC)c(OC)c(OC)c2)cc1,22.2%,–,"29.1 µM [rising, single point]"
CCOC(=O)c1sc(N2C(=O)C(O)=C(C(=O)c3ccco3)C2c2cccc([N+](=O)[O-])c2)nc1C (configuration not stated),9.76%,–,"16.4 µM [rising, partial curve]"
O=C(N/N=C1/SCC(=O)N1Cc1ccco1)c1ccccc1F,11.9%,–,–
N#Cc1cc(O)c(-n2nnc3ccccc32)cc1C#N,-21.3%,–,"29.1 µM [falling, single point]"
Cc1ccc(C2(C)NC(=O)N(CC(=O)N(C)CC(=O)Nc3cccc(F)c3)C2=O)cc1 (configuration not stated),-14.9%,–,"29.1 µM [rising, single point]"
O=C(COC(=O)/C=C/c1cccc(C(F)(F)F)c1)NCc1ccc(F)cc1,–,"0.731 µM [rising, single point]","20.6 µM [rising, single point]"
CCOc1ccccc1NC(=O)CSc1ccc(-c2sc(C)nc2C)nn1,-26.3%,–,"29.1 µM [falling, single point]"
COc1cc(C(=O)Nc2ncccc2C)ccc1OCC(=O)N1CCOCC1,3.05%,"6.51 µM [rising, single point]","6.51 µM [rising, single point]"
CCOC(=O)c1cn(CC)c2ccc(Br)cc2c1=O,85.1%,"5.8 µM [rising, partial curve]","13 µM [rising, partial curve]"
O=C(/C=C/N1CCOCC1)c1ccc(-c2ccccc2)cc1,-3.65%,–,"0.116 µM [falling, full curve]"
COc1ccc(C(=O)COc2ccc(NC(C)=O)cc2)cc1,6.85%,–,"20.6 µM [rising, single point]"
O=c1[nH]cnc2sc(-c3ccccc3)cc12,84.1%,"7.31 µM [rising, partial curve]","13 µM [rising, partial curve]"
Cc1ccc(S(=O)(=O)CCC(=O)Nc2ccc3nc(C)sc3c2)cc1,-6.16%,–,–
NS(=O)(=O)c1ccc(NC(=O)c2ccc(Cl)c(S(=O)(=O)NCc3ccco3)c2)cc1,-35%,"18.4 µM [falling, single point]","18.4 µM [falling, partial curve]"

# A different layout for part of the listing above.
SMILES | cell number change | AC50 [1] | AC50 [2]
O=C(/C=C/N1CCOCC1)c1ccc(-c2ccccc2)cc1 | -3.65% | – | 0.116 µM [falling, full curve]
COc1ccc(C(=O)COc2ccc(NC(C)=O)cc2)cc1 | 6.85% | – | 20.6 µM [rising, single point]

# Reference: PubChem BioAssay AID2685 (National Center for Advancing Translational Sciences (NCATS), 2010)
